Assay results reported in PubChem BioAssay AID1347075 (National Center for Advancing Translational Sciences (NCATS), 2019).
About 5,500 (1.4%) of roughly 400,000 compounds were called active. Inconclusive means that the source gave no clear call. Such entries were picked first, then a sample of the others. Calls come from the whole dose curve; as a rule, active = well fitted cell-killing curve with a large enough effect; inconclusive = small, poorly fitted or top-dose-only effect, or effect the other way; inactive = flat fitted curve, though single readings scatter. Where the call is inconclusive, the potency comes from a doubtful curve fit.

Assay: qHTS assay for MDR1-selective chemotherapeutics: Primary screen using the parental adenocarcinoma cell KB-3-1; note: nearly all actives have a fitted effect of over 60% in size
Settings: KB-3-1 viability, CellTiter-Glo ATP luminescence, 72 h; activity change, negative = cytotoxic: at 46.1 µM (top of the series)
Outline: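 Cells are dispensed, compounds pinned in, plates held at 37 °C for 72 h, then CellTiter-Glo is added and luminescence read after 10 minutes. Cell line: parental KB-3-1 in phenol-red-free DMEM, 10% FBS.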
% is set by controls: 0 for no effect and ±100 for the full control effect; potency is the fitted concentration of half-maximal effect.

| SMILES | Potency | activity change, negative = cytotoxic |
| --- | --- | --- |
| Cn1c(=O)n(-c2ccc(C(C)(C)C#N)cc2)c2c3cc(-c4cnc5ccccc5c4)ccc3ncc21 | inconclusive: 0.355 µM [cytotoxic, full curve] |  |
| CCOC(=O)C(Nc1ccc2ccccc2c1)C(=O)OCC | inactive |  |
| COc1cc(/C=C/C(=O)OCC(=O)NNC(=O)c2cc(Cl)ccc2OC)ccc1O | inactive |  |
| COc1c(C)cc(C(=O)C2CCCN(C(=O)c3ccc4cc[nH]c4c3)C2)cc1C (stereo not drawn) | inconclusive: 11.6 µM [rising, partial curve, poor fit] |  |
| Cc1cccc(OCCCCn2c(C3CC(=O)N(c4ccccc4Cl)C3)nc3ccccc32)c1 (stereo not drawn) | inconclusive: 23.1 µM [cytotoxic, single point] |  |
| CSc1cccc(NC(=O)C2CCCN(c3ncnc4c3nc3n4CCCCC3)C2)c1 (stereo not drawn) | inconclusive: 16.4 µM [cytotoxic, single point] |  |
| COc1ccc(S(=O)(=O)NCCc2sc(C)nc2C)cc1F | inconclusive: 16.4 µM [cytotoxic, partial curve] |  |
| O=C(NC(=S)NNC(=O)c1ccco1)c1ccccc1 | inconclusive: 29.1 µM [cytotoxic, single point] |  |
| CC(=O)Nc1ccc(Oc2sc(C(=O)c3ccccc3)c(N)c2C#N)cc1 | inactive |  |
| Cc1ccc(/C=N/NC(=O)c2ccc(NC(=O)c3ccccc3Cl)cc2)o1 |  | inconclusive: 7.95% |
| Nc1ncnc2c1C1(CCCCC1)Cc1ccccc1-2 | inconclusive: 32.6 µM [cytotoxic, single point] |  |
| CCN1C(=O)c2ccccc2Sc2ccc(NC(=O)COc3ccc(Cl)cc3)cc21 | inconclusive: 29.1 µM [cytotoxic, single point] |  |
| C=CCSC1=C(C#N)C(c2ccccc2Cl)C(C(=O)c2cccs2)C(O)(C(F)(F)F)N1 (stereo not drawn) | inconclusive: 13 µM [cytotoxic, partial curve, poor fit] |  |
| CC(=O)N1N=C(c2cccc([N+](=O)[O-])c2)OC1(C)c1cccs1 (stereo not drawn) | inconclusive: 18.4 µM [cytotoxic, single point] |  |
| CCOc1ccc(CCN2C(=O)C(=O)N([C@@H](Cc3ccc(O)cc3)CN3CCC[C@@H]3CN3C(=O)C(=O)NC[C@@H]3Cc3ccccc3)C[C@@H]2Cc2ccccc2)cc1 | inactive |  |
| CC(=O)c1cc2ccc(O)cc2oc1=O | inactive |  |
| CCOc1ccc(OCC(=O)Nc2cccc(S(=O)(=O)NC3=NCCC3)c2)cc1 | inconclusive: 29.1 µM [cytotoxic, single point] |  |
| CC(C)NC(=O)N(C)C[C@H]1Oc2cc(Br)ccc2S(=O)(=O)N([C@H](C)CO)C[C@H]1C | inconclusive: 29.1 µM [rising, single point] |  |
| S=C(NC1CC2CCC1C2)N1CCN(c2cccc(Cl)c2)CC1 (stereo not drawn) | inconclusive: 29.1 µM [cytotoxic, single point] |  |
| CCOC(=O)c1c(CN2CCNCC2)nc2ccc(Cl)cc2c1-c1ccccc1 | inconclusive: 20.6 µM [cytotoxic, single point] |  |
| COc1cccc(C2c3cc4c(cc3OC(C)(N3CCCC3)C2C)OCO4)c1O (stereo not drawn) | inconclusive: 13 µM [cytotoxic, partial curve, poor fit] |  |
| C/C(CC(=O)N1CCCC1)=N\NC(=O)c1cc2ccccc2cc1O | inconclusive: 29.1 µM [cytotoxic, single point] |  |

| SMILES | Potency | activity change, negative = cytotoxic |
| --- | --- | --- |
| NC(=O)c1ccc(-c2nnn(CC(=O)Nc3cccc(S(=O)(=O)N4CCCC4)c3)n2)cc1 | inconclusive: 0.0206 µM [rising, full curve] |  |
| COc1cccc(C2(O)CCN(C(=O)c3cccs3)CC2)c1 | inactive |  |
| C=CCOC(=O)COc1ccc2c(C)c(CC)c(=O)oc2c1 | inconclusive: 0.0259 µM [rising, full curve] |  |
| Cc1nn(Cc2ccc(Cl)c(Cl)c2)c(C)c1NC(=O)c1cc(C2CC2)on1 | inconclusive: 18.4 µM [cytotoxic, single point] |  |
| Cc1cc(C)c(C(=O)CC(=O)c2cccnc2)c(C)c1 | inconclusive: 29.1 µM [cytotoxic, single point] |  |
| Fc1cccc(Cl)c1/C=C/c1cnc2ccccc2n1 | inactive |  |
| O=C(Nc1ccccc1O)c1ccccc1O | inconclusive: 29.1 µM [cytotoxic, single point] |  |
| COc1cc(SC)ccc1C(=O)Nc1cccc(S(=O)(=O)NC2=NCCC2)c1 | inactive |  |
| N#Cc1ccc(-c2cccs2)nc1SCc1c(F)cccc1Cl | inconclusive: 2.59 µM [cytotoxic, partial curve, poor fit] |  |
| O=C(CN1C(=O)/C(=C\c2ccc(F)cc2)Oc2ccccc21)N1CCN(c2ccccn2)CC1 | inactive |  |
| CC(C)OCCCNc1ncnc2c1[nH]c1ccc(F)cc12 | inconclusive: 18.4 µM [cytotoxic, partial curve, poor fit] |  |
| Cc1ccc(C(=O)COC(=O)CSc2cccc3cccnc23)c(C)c1 | inactive |  |
| Nn1c(Nc2ccccc2)nc2sc3c(c2c1=O)CCCC3 | inactive |  |
| O=c1c2ccccc2sn1-c1ccccc1F | inconclusive: 11.6 µM [cytotoxic, partial curve, poor fit] |  |
| COc1ccc(OC)c(-c2nc3c(C#N)c[nH]n3c2NC2CCCCC2)c1 | inactive |  |
| COc1ccc(/C=N/c2c(-c3ccco3)nc3ccccn23)cc1OC | inconclusive: 25.9 µM [cytotoxic, single point] |  |
| Cc1noc(C)c1NC(=O)Nc1ccc2c(c1)CC(=O)N([C@H](C)CO)C[C@@H](C)[C@H](CN(C)CC1CCCCC1)O2 | inactive |  |
| CCOc1cc(C)c(-c2onc(C(F)(F)F)c2-c2csc(C)n2)c(O)c1 | inconclusive: 29.1 µM [cytotoxic, single point] |  |
| O=C(N/N=C/c1cccc(C(F)(F)F)c1)c1cc2c(s1)-c1ccccc1CC2 | inconclusive: 32.6 µM [cytotoxic, single point] |  |
| Nc1nonc1N/N=C\c1ccccc1 | inconclusive: 32.6 µM [cytotoxic, single point] |  |
| CC(C)CC(NC(=O)OC(C)(C)C)c1cn([C@@H](Cc2cc3ccccc3[nH]2)C(=O)N2CCN(C(=O)OC(C)(C)C)CC2)nn1 (stereo partly drawn) | inconclusive: 29.1 µM [cytotoxic, single point] |  |

2 entries drawn at random from the list so far:

| SMILES | Potency | activity change, negative = cytotoxic |
| --- | --- | --- |
| Nn1c(Nc2ccccc2)nc2sc3c(c2c1=O)CCCC3 | inactive |  |
| N#Cc1ccc(-c2cccs2)nc1SCc1c(F)cccc1Cl | inconclusive: 2.59 µM [cytotoxic, partial curve, poor fit] |  |
